This is one part of the list.
What was measured:
Assay in all cases: log2 fold change, soluble protein after heating vs DMSO (PISA); higher = thermal stabilisation; K562 cells, 10 uM, 30 min; active = over 0.2 and 3.5 SD of the protein, either way, in both replicates (recomputed)
[1] = compound: C1=CC=C(C=C1)[C@H](COC2=CC3=C(C=C2)NC(=O)N3)NC(=O)C4=CC=CN(C4=O)CC5=CC(=C(C=C5)F)F
How it was run: (§1)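 K562 cells at 2×10^6 cells/mL were given 10 μM compound for 30 min. Aliquots then went through 3 min of heating across 48°C-58°C, were pooled, and were extracted in PBS with 0.5% NP-40 at 4°C, and the supernatant after 21,000xg for 90 min was quantified by TMTpro 16plex LC-MS/MS with channel sums equalised. Thermal stability relative to control samples, from duplicates, is given as log2 fold change.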

Sequences of proteins named here, by UniProt entry; tags and fusion partners are left off. A change or cut given only in a name is not applied to a line headed by its entry.
UniProt Q12797: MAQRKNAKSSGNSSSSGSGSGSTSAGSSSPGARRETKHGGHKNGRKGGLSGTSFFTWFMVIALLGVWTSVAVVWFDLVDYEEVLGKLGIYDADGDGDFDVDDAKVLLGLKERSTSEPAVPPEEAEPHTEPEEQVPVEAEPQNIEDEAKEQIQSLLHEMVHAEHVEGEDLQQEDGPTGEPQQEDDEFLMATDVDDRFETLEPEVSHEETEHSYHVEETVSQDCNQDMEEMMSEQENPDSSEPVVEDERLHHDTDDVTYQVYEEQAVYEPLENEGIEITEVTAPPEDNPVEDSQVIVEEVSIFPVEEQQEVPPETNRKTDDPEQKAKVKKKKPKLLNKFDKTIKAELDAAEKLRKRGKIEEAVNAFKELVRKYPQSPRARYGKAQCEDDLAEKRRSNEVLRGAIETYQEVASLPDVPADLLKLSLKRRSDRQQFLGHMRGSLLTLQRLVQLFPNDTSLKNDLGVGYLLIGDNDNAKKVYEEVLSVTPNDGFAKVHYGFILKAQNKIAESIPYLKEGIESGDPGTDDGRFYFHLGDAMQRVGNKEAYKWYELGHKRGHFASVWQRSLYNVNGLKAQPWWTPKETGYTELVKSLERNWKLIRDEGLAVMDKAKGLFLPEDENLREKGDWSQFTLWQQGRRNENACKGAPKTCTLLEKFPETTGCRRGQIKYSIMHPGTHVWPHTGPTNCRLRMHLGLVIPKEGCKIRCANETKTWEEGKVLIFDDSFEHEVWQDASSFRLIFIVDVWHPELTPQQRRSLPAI
UniProt Q96KC2: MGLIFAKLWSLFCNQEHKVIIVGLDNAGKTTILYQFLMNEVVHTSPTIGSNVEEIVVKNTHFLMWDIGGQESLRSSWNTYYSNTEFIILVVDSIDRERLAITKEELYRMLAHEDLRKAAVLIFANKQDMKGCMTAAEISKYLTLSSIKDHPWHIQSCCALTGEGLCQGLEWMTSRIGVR
UniProt Q6DD88: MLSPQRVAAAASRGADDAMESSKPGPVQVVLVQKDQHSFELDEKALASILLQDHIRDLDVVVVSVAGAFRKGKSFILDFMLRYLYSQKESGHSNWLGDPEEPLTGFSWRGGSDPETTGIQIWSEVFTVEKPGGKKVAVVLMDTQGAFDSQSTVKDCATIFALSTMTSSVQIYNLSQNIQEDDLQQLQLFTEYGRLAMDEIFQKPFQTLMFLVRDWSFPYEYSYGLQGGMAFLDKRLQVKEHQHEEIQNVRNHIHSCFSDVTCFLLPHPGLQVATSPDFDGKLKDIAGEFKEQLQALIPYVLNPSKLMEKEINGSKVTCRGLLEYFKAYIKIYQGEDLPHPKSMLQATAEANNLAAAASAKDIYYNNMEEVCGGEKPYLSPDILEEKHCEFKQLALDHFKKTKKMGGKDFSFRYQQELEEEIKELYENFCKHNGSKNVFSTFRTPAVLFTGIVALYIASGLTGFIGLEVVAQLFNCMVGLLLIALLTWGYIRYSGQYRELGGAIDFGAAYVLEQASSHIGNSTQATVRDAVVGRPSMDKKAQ
UniProt Q8NBU5: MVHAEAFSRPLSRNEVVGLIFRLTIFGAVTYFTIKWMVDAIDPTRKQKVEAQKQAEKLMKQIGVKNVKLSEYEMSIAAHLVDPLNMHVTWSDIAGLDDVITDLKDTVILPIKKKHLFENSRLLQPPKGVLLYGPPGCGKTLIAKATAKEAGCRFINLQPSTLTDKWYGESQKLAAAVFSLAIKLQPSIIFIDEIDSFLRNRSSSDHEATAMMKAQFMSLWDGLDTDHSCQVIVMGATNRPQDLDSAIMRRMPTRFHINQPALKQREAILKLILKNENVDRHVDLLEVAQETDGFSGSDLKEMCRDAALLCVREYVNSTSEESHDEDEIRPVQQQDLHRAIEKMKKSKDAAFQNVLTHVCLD
UniProt Q06055: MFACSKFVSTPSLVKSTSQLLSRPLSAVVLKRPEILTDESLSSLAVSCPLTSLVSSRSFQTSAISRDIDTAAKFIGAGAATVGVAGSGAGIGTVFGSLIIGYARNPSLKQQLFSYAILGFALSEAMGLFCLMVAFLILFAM
UniProt P25705: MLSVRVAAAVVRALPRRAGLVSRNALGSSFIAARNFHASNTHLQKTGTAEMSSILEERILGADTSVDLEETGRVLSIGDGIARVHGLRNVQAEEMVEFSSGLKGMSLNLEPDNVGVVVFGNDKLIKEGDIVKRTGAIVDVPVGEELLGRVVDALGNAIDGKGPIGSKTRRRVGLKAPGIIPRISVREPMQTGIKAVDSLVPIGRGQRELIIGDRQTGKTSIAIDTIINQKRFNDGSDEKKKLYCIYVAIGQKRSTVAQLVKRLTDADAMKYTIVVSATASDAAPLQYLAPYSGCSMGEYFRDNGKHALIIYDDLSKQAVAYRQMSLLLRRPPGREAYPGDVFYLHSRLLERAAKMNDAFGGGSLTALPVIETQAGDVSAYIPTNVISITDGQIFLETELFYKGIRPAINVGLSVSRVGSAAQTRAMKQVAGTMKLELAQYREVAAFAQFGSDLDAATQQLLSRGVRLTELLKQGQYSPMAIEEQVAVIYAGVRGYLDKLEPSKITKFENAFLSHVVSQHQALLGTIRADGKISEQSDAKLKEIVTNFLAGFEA
UniProt Q96IX5: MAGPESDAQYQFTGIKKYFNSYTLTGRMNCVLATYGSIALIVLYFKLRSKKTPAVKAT
UniProt P54709, whole entry, looked up: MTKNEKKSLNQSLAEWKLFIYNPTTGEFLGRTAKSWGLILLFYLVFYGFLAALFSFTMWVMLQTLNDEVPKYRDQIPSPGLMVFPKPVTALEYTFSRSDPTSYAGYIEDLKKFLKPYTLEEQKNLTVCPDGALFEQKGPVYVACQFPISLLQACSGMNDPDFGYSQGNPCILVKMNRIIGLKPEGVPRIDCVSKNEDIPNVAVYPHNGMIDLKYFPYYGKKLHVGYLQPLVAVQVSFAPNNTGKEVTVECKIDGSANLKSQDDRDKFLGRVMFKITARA
UniProt Q15041, whole entry, looked up: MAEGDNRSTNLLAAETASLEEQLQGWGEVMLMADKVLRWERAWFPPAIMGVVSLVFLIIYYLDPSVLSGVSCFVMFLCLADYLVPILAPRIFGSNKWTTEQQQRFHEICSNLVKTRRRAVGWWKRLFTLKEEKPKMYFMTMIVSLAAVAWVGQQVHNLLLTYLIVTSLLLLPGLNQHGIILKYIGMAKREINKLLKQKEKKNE
UniProt O75348, whole entry, looked up: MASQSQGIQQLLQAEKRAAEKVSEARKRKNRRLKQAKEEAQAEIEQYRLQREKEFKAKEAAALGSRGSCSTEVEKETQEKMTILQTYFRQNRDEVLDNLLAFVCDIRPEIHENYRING
UniProt O95376: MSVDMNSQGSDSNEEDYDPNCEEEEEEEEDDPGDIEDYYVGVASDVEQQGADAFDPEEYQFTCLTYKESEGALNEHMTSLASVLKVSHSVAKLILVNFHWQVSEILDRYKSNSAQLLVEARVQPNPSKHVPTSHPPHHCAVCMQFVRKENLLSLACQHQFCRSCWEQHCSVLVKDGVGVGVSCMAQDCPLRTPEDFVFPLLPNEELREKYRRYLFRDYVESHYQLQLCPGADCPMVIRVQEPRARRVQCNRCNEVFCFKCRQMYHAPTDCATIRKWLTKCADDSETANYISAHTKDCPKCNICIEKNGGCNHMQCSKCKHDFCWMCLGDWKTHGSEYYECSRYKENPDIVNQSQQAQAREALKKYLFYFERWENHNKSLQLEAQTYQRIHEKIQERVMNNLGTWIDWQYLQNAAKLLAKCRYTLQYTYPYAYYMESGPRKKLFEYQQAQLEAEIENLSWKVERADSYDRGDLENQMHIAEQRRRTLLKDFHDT
UniProt P24539: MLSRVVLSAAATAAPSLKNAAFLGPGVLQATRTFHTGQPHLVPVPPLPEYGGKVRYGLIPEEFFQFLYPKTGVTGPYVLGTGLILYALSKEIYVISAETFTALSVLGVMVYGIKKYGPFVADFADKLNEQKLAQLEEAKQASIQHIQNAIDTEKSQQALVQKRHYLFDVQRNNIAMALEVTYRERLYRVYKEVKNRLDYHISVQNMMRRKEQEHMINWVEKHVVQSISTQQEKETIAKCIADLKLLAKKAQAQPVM
UniProt P21281, whole entry, looked up: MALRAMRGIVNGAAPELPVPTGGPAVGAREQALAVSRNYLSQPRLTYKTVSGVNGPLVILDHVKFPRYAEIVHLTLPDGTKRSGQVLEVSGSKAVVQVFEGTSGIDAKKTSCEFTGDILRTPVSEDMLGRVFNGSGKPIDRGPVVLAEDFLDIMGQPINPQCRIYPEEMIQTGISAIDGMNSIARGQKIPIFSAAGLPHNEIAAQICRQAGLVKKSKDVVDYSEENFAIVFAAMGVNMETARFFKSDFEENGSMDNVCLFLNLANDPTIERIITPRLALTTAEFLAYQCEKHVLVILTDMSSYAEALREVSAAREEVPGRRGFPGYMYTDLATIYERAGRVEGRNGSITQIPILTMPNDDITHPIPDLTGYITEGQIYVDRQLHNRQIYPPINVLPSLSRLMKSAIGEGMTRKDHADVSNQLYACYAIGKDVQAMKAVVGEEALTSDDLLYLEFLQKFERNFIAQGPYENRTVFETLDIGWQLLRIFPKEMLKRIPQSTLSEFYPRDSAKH
UniProt Q7Z3C6: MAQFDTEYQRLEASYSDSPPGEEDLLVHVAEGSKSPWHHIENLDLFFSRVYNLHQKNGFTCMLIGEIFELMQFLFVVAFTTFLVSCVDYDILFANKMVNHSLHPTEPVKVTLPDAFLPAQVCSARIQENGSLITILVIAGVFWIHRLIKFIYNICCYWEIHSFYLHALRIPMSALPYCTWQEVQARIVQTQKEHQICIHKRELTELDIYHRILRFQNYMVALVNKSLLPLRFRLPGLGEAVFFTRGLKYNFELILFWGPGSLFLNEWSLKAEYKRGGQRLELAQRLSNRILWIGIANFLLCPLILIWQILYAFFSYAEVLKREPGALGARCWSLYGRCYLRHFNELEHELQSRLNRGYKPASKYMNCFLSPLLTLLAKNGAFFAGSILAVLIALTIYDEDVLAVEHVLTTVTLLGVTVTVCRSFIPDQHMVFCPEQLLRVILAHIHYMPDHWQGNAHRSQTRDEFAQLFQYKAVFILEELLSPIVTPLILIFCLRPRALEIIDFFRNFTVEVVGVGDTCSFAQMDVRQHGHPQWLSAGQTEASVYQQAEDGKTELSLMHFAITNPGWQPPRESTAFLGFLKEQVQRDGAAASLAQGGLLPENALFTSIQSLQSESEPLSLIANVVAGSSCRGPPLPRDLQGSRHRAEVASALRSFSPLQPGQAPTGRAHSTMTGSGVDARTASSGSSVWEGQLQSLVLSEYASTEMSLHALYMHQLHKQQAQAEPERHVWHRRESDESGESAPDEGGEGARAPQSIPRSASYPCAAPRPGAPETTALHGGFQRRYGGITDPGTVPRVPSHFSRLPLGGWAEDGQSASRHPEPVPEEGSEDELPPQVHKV
UniProt P98194: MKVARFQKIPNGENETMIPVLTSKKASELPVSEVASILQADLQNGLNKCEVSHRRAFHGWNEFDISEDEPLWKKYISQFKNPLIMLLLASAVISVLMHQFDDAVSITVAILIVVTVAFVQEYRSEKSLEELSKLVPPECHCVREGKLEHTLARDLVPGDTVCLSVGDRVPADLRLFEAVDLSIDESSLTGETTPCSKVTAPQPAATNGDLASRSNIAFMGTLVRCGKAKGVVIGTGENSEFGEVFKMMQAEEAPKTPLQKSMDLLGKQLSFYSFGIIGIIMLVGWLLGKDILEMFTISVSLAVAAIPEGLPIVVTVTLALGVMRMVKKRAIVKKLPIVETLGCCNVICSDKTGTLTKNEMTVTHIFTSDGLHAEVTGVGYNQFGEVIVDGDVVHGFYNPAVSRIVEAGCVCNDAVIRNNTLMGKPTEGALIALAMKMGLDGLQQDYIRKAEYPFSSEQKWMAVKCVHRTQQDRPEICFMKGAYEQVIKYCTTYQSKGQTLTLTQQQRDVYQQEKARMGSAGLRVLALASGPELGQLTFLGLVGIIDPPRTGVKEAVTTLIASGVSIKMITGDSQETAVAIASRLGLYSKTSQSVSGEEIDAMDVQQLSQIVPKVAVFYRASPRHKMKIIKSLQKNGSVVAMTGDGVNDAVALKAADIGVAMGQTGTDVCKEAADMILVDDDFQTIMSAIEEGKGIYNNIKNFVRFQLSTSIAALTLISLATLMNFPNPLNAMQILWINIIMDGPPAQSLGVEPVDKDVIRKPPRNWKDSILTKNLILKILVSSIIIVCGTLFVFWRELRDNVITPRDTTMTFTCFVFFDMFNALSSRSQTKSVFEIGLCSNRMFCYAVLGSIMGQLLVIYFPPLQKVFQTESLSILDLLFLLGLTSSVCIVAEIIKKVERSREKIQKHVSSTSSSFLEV
UniProt Q9NXU5: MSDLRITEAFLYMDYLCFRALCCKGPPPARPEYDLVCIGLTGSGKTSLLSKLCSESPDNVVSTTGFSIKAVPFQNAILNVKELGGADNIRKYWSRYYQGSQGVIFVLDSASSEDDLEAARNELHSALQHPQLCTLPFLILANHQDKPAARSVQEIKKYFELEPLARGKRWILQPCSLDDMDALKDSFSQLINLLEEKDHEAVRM

[2] = compound: CC1=C(SC2=C1C(=N[C@H](C3=NN=C(N32)C)CC(=O)N)C4=CC=C(C=C4)Cl)C
How it was run: as §1

[3] = compound: CC1=C2C(=CC=C1)N=C(N(C2=O)C3=CC=CC=C3C)CN4C=NC5=C(N=CN=C54)N
How it was run: as §1

[4] = compound: Cc1sc2c(c1C)C(c1ccc(Cl)cc1)=N[C@@H](CC(=O)OC(C)(C)C)c1nnc(C)n1-2
How it was run: as §1

[5] = compound: c1ccc([C@@H]2C[C@H]2NC2CCNCC2)cc1
How it was run: as §1

Measured: log2 fold change

ASPH (UniProt Q12797)
inactive: [1] 0.057 | [2] -0.015 | [3] -0.046 | [4] 0.021 | [5] 0.042

ARL5B (UniProt Q96KC2)
inactive: [1] -0.087 | [2] 0.107 | [3] 0.216 | [4] 0.016 | [5] 0.056

ATL3 (UniProt Q6DD88)
inactive: [1] -0.025 | [2] 0.032 | [3] 0.012 | [4] -0.042 | [5] -0.012

ASF1B (UniProt Q9NVP2)
inactive: [1] -0.06 | [2] -0.018 | [3] 0.07 | [4] 0.018 | [5] 0.092

ATAD1 (UniProt Q8NBU5)
inactive: [1] 0.016 | [2] 0.055 | [3] 0.063 | [4] -0.027 | [5] -0.02

ATG2A isoform 3 (UniProt Q2TAZ0)
inactive: [1] -0.003 | [2] 0.063 | [3] 0.029 | [4] 0.013 | [5] -0.009

ARMT1 (UniProt Q9H993)
inactive: [1] -0.209 | [2] -0.012 | [3] 0.118 | [4] 0.183 | [5] -0.021

ATP5MC2 isoform 2 (UniProt Q06055)
inactive: [1] 0.01 | [2] -0.034 | [3] -0.007 | [4] -0.048 | [5] 0.062

ATP1A3 isoform 3 (UniProt P13637)
inactive: [1] 0 | [2] -0.018 | [3] -0.002 | [4] 0.041 | [5] 0.08

ATP5F1A (UniProt P25705)
inactive: [1] -0.009 | [2] -0.018 | [3] -0.019 | [4] 0.013 | [5] 0.012

Six successive entries out of the list so far, for reference:
ARL5B (UniProt Q96KC2)
inactive: [1] -0.087 | [2] 0.107 | [3] 0.216 | [4] 0.016 | [5] 0.056

ATL3 (UniProt Q6DD88)
inactive: [1] -0.025 | [2] 0.032 | [3] 0.012 | [4] -0.042 | [5] -0.012

ASF1B (UniProt Q9NVP2)
inactive: [1] -0.06 | [2] -0.018 | [3] 0.07 | [4] 0.018 | [5] 0.092

ATAD1 (UniProt Q8NBU5)
inactive: [1] 0.016 | [2] 0.055 | [3] 0.063 | [4] -0.027 | [5] -0.02

ATG2A isoform 3 (UniProt Q2TAZ0)
inactive: [1] -0.003 | [2] 0.063 | [3] 0.029 | [4] 0.013 | [5] -0.009

ARMT1 (UniProt Q9H993)
inactive: [1] -0.209 | [2] -0.012 | [3] 0.118 | [4] 0.183 | [5] -0.021

Next part

ATP5MD (UniProt Q96IX5)
inactive: [1] 0.093 | [2] 0.09 | [3] 0.07 | [4] -0.084 | [5] -0.025

ATP1B3 (UniProt P54709)
inactive: [1] 0.012 | [2] 0.042 | [3] 0.001 | [4] 0.002 | [5] 0.006

ARL6IP1 (UniProt Q15041)
inactive: [1] -0.034 | [2] -0.031 | [3] -0.051 | [4] -0.049 | [5] 0.044

ASL (UniProt P04424)
inactive: [1] 0.008 | [2] -0.02 | [3] 0.013 | [4] -0.022 | [5] 0.04

ATP6V1G1 (UniProt O75348)
inactive: [1] 0.018 | [2] 0.001 | [3] 0.071 | [4] 0.008 | [5] -0.063

ARPC3 (UniProt O15145)
inactive: [1] 0.054 | [2] 0.016 | [3] -0.001 | [4] -0.005 | [5] 0.005

ARIH2 (UniProt O95376)
inactive: [1] -0.011 | [2] -0.074 | [3] -0.018 | [4] -0.029 | [5] 0.043

ATP5PB (UniProt P24539)
inactive: [1] 0.043 | [2] 0.02 | [3] 0.013 | [4] -0.049 | [5] 0.007

ATP6V1B2 (UniProt P21281)
inactive: [1] 0.026 | [2] -0.037 | [3] -0.014 | [4] 0 | [5] 0.009

ATG9A (UniProt Q7Z3C6)
inactive: [1] 0.018 | [2] 0.014 | [3] 0.021 | [4] -0.028 | [5] -0.05

ATP6V1D (UniProt Q9Y5K8)
inactive: [1] 0.013 | [2] -0.008 | [3] -0.013 | [4] -0.036 | [5] 0.002

ATP2C1 isoform 7 (UniProt P98194)
inactive: [1] -0.005 | [2] 0.047 | [3] 0.016 | [4] 0.027 | [5] 0.021

ARL15 (UniProt Q9NXU5)
inactive: [1] 0.001 | [2] 0.121 | [3] 0.033 | [4] -0.092 | [5] -0.008
